# Source: the supplement of paper PMC8728848
# The list shows a part of the results.
# How the values were obtained:
# Experiment in all cases: glycan array binding signal (z-score within array); higher = stronger binding
# Details in all cases: glycan notation: IUPAC condensed, linker removed
# [1] = target: Gal(b1-3)GlcNAc(b1-2)Man(a1-3)[Gal(b1-3)GlcNAc(b1-2)Man(a1-6)]Man(b1-4)GlcNAc(b1-4)[Fuc(a1-6)]GlcNAc
# In short: (§1)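 Glycan array data came from 3228 arrays in the Consortium for Functional Glycomics database, and only arrays with an available protein sequence were kept. Glycan names were put into IUPAC-condensed notation, and columns mapping to the same glycan were averaged. The binding signal is a within-array Z-score, averaged across arrays of one protein sequence run at different concentrations or buffers and across linkers. A negative Z-score can be read as non-binding.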
# [2] = target: Gal(b1-3)GlcNAc(b1-2)Man(a1-3)[GlcNAc(b1-4)][Gal(b1-3)GlcNAc(b1-2)Man(a1-6)]Man(b1-4)GlcNAc(b1-4)GlcNAc
# In short: as §1
# [3] = target: Gal(b1-3)GlcNAc(b1-2)[Gal(b1-3)GlcNAc(b1-6)]Man(a1-6)[Gal(b1-3)GlcNAc(b1-2)Man(a1-3)]Man(b1-4)GlcNAc(b1-4)GlcNAc
# In short: as §1
# [4] = target: Gal(b1-3)GlcNAc(b1-3)Gal(b1-3)GlcNAc
# In short: as §1
# [5] = target: Gal(b1-3)GlcNAc(b1-3)Gal(b1-4)Glc
# In short: as §1
# [6] = target: Gal(b1-3)GlcNAc(b1-3)Gal(b1-4)GlcNAc
# In short: as §1
# [7] = target: Gal(b1-3)GlcNAc(b1-3)Gal(b1-4)GlcNAc(b1-2)Man(a1-3)[Gal(b1-3)GlcNAc(b1-3)Gal(b1-4)GlcNAc(b1-2)Man(a1-6)]Man(b1-4)GlcNAc(b1-4)GlcNAc
# In short: as §1
# [8] = target: Gal(b1-3)GlcNAc(b1-3)Gal(b1-4)GlcNAc(b1-2)[Gal(b1-3)GlcNAc(b1-3)Gal(b1-4)GlcNAc(b1-6)]Man(a1-6)[Gal(b1-3)GlcNAc(b1-3)Gal(b1-4)GlcNAc(b1-2)Man(a1-3)]Man(b1-4)GlcNAc(b1-4)[Fuc(a1-6)]GlcNAc
# In short: as §1
# [9] = target: Gal(b1-3)GlcNAc(b1-3)Gal(b1-4)GlcNAc(b1-3)Gal(b1-4)GlcNAc(b1-2)[Gal(b1-3)GlcNAc(b1-3)Gal(b1-4)GlcNAc(b1-3)Gal(b1-4)GlcNAc(b1-6)]Man(a1-6)[Gal(b1-3)GlcNAc(b1-3)Gal(b1-4)GlcNAc(b1-3)Gal(b1-4)GlcNAc(b1-2)Man(a1-3)]Man(b1-4)GlcNAc(b1-4)[Fuc(a1-6)]GlcNAc
# In short: as §1
# [10] = target: Gal(b1-3)GlcNAc(b1-3)Gal(b1-4)GlcNAc(b1-6)[Gal(b1-3)GlcNAc(b1-3)]Gal(b1-4)Glc
# In short: as §1
# [11] = target: Gal(b1-3)GlcNAc(b1-3)Gal(b1-4)[Fuc(a1-3)]GlcNAc
# In short: as §1
# [12] = target: Gal(b1-3)GlcNAc(b1-3)Gal(b1-4)[Fuc(a1-3)]GlcNAc(b1-6)[Gal(b1-3)GlcNAc(b1-3)]Gal(b1-4)Glc
# In short: as §1
# [13] = target: Gal(b1-3)GlcNAc(b1-3)GalNAc
# In short: as §1
# [14] = target: Gal(b1-3)GlcNAc(b1-6)Gal(b1-4)GlcNAc
# In short: as §1
# [15] = target: Gal(b1-3)GlcNAc(b1-6)GalNAc
# In short: as §1
# [16] = target: Gal(b1-3)GlcNAc(b1-6)[Gal(b1-3)]GalNAc
# In short: as §1
# Gal(b1-3)GlcNAc6S = target: Gal(b1-3)GlcNAc6S
# In short: as §1
# [17] = target: Gal(b1-3)[Fuc(a1-4)]GlcNAc
# In short: as §1
# [18] = target: Gal(b1-3)[Fuc(a1-4)]GlcNAc(b1-2)Man
# In short: as §1
# [19] = target: Gal(b1-3)[Fuc(a1-4)]GlcNAc(b1-2)Man(a1-3)[Gal(b1-3)[Fuc(a1-4)]GlcNAc(b1-2)Man(a1-6)]Man(b1-4)GlcNAc(b1-4)[Fuc(a1-6)]GlcNAc
# In short: as §1
# [20] = target: Gal(b1-3)[Fuc(a1-4)]GlcNAc(b1-3)Gal(b1-3)[Fuc(a1-4)]GlcNAc
# In short: as §1
# [21] = target: Gal(b1-3)[Fuc(a1-4)]GlcNAc(b1-3)Gal(b1-4)[Fuc(a1-3)]GlcNAc
# In short: as §1
# [22] = target: Gal(b1-3)[Fuc(a1-4)]GlcNAc(b1-6)GalNAc
# In short: as §1
# [23] = target: Gal(b1-3)[GlcNAc(b1-6)]GalNAc
# In short: as §1
# [24] = target: Gal(b1-3)[Neu5Ac(a2-6)]GalNAc
# In short: as §1
# [25] = target: Gal(b1-3)[Neu5Ac(a2-6)]GlcNAc(b1-4)Gal(b1-4)Glc
# In short: as §1
# [26] = target: Gal(b1-3)[Neu5Ac(b2-6)]GalNAc
# In short: as §1
# Gal(b1-4)Gal = target: Gal(b1-4)Gal
# In short: as §1
# [27] = target: Gal(b1-4)GalNAc(a1-3)[Fuc(a1-2)]Gal(b1-4)GlcNAc
# In short: as §1
# [28] = target: Gal(b1-4)GalNAc(b1-3)[Fuc(a1-2)]Gal(b1-4)GlcNAc
# In short: as §1
binder,measurement,setting,value
Awp1 (Candida glabrata) (protein) MSLITIFAFLIKATLVLSLDILTPTTLTGDQTFNEDVSVVSSLTLNDGSQYLFNNLLQIAPSSASVTANALAAVSVFTFSLPPSSSLSNSGTLIISNSNTGPSTEQHIVITPNVMANTGTITLSLAHTNTDSSSTLIIDPVTFYNTGTINYESIGSETNDPSLTGNILSIGSSGRTLQNLGTINLNAANSYYLLGTITENSGSINVQKGFLYVNALDFIGNTINLSTTTALAFISPVSQVVRVRGVFFGNIIASVGSSGTFSYNTQTGILTVTTNGVYSYDIGCGYNPALMSGQQETLSFQGNPYDTFLVLVNQPIPSDLTCAAVSSSITPSSSVEPSSSVVPSSSVEPSSSVEPSSSVEPSSSVEPSSSVEPSSSVEPSSSVEPSSSVEPSSSVEPSSSVEPSSSVEPSSSVEPSSSVEPSSSVEPSSSVEPSSSVEPSSSVEPSSSVEPSSSVEPSSLIVPSSSVEPSSSVLPSSSVVPSSSVEPSTPPIPSSSVEPSSSVVPSSPAVPSSSVEPSTPPIPSSSVVSASVFDTSSTLPSSPSVPPSSVSPSTISTPSSSAAPSSFCPTCVSSGTPPAPSSSAIVPTSSAGGGNGGDNREPGAAGQPGAAGQPGAAGQPGAAGQPGAAGQPGAAGQPGAAGQPGAAGQPGAAGQPGAAGQPGAGFGVGSEQPTPGAGAGSGSADGNQSGTGSGTGNGQQGSGQAGSGQAGSGQEGSGQAGSGQAGSGQAGSGQAGSGQAGLDNTASGQSEGGQASAMDGDQSGRDGQSNSGSLLQPNAQQGTGSGTGSDIGADQASGESPGQIGDAQPGSGTDQSSGRHSLAAEARTSQSHSLAADARTRSTTRQTSVIAPDTAPGTASGTAPGTAPGTAVVTTFHGCGTVNHKGMINILLALALLVLL,glycan array binding signal (z-score),[1],0.44
same,glycan array binding signal (z-score),[2],-1.44
same,glycan array binding signal (z-score),[3],2.35
same,glycan array binding signal (z-score),[4],0.181
same,glycan array binding signal (z-score),[5],0.354
same,glycan array binding signal (z-score),[6],0.12
same,glycan array binding signal (z-score),[7],-1.07
same,glycan array binding signal (z-score),[8],1.68
same,glycan array binding signal (z-score),[9],-1.15
same,glycan array binding signal (z-score),[10],2.29
same,glycan array binding signal (z-score),[11],-1.27
same,glycan array binding signal (z-score),[12],-0.137
same,glycan array binding signal (z-score),[13],-0.53
same,glycan array binding signal (z-score),[14],-0.148
same,glycan array binding signal (z-score),[15],1.17
same,glycan array binding signal (z-score),[16],-0.25
same,glycan array binding signal (z-score),Gal(b1-3)GlcNAc6S,1.32
same,glycan array binding signal (z-score),[17],-0.423
same,glycan array binding signal (z-score),[18],-0.994
same,glycan array binding signal (z-score),[19],0.673
same,glycan array binding signal (z-score),[20],-0.848
same,glycan array binding signal (z-score),[21],-1.16
same,glycan array binding signal (z-score),[22],-0.853
same,glycan array binding signal (z-score),[23],-0.266
same,glycan array binding signal (z-score),[24],-0.433
same,glycan array binding signal (z-score),[25],0.191
same,glycan array binding signal (z-score),[26],0.232
same,glycan array binding signal (z-score),Gal(b1-4)Gal,-0.866
same,glycan array binding signal (z-score),[27],-0.497
same,glycan array binding signal (z-score),[28],-0.122

# Random excerpt: two records from the list
binder,measurement,setting,value
Awp1 (Candida glabrata) (protein) MSLITIFAFLIKATLVLSLDILTPTTLTGDQTFNEDVSVVSSLTLNDGSQYLFNNLLQIAPSSASVTANALAAVSVFTFSLPPSSSLSNSGTLIISNSNTGPSTEQHIVITPNVMANTGTITLSLAHTNTDSSSTLIIDPVTFYNTGTINYESIGSETNDPSLTGNILSIGSSGRTLQNLGTINLNAANSYYLLGTITENSGSINVQKGFLYVNALDFIGNTINLSTTTALAFISPVSQVVRVRGVFFGNIIASVGSSGTFSYNTQTGILTVTTNGVYSYDIGCGYNPALMSGQQETLSFQGNPYDTFLVLVNQPIPSDLTCAAVSSSITPSSSVEPSSSVVPSSSVEPSSSVEPSSSVEPSSSVEPSSSVEPSSSVEPSSSVEPSSSVEPSSSVEPSSSVEPSSSVEPSSSVEPSSSVEPSSSVEPSSSVEPSSSVEPSSSVEPSSSVEPSSSVEPSSLIVPSSSVEPSSSVLPSSSVVPSSSVEPSTPPIPSSSVEPSSSVVPSSPAVPSSSVEPSTPPIPSSSVVSASVFDTSSTLPSSPSVPPSSVSPSTISTPSSSAAPSSFCPTCVSSGTPPAPSSSAIVPTSSAGGGNGGDNREPGAAGQPGAAGQPGAAGQPGAAGQPGAAGQPGAAGQPGAAGQPGAAGQPGAAGQPGAAGQPGAGFGVGSEQPTPGAGAGSGSADGNQSGTGSGTGNGQQGSGQAGSGQAGSGQEGSGQAGSGQAGSGQAGSGQAGSGQAGLDNTASGQSEGGQASAMDGDQSGRDGQSNSGSLLQPNAQQGTGSGTGSDIGADQASGESPGQIGDAQPGSGTDQSSGRHSLAAEARTSQSHSLAADARTRSTTRQTSVIAPDTAPGTASGTAPGTAPGTAVVTTFHGCGTVNHKGMINILLALALLVLL,glycan array binding signal (z-score),[11],-1.27
same,glycan array binding signal (z-score),[27],-0.497
